Results are given in words; binding and its absence hold for the method and conditions named. Some results given as binding are weak or reduced against the parent protein; the word gives no strength. Each block holds one binder with its values, some of them ahead of it.
Experiments:
[1] = target: BSA-coupled (GP)15 DPR protein peptide (bovine) (UniProt P02769); assay: Western blot, BSA-coupled peptide
[2] = target: (GA)15: H-CHHHHHH(GA)15-OH; assay: indirect ELISA, coated uncoupled peptide
[3] = target: T1, (GP)15: H-C(GP)15-OH; assay: indirect ELISA, coated uncoupled peptide
T1 sequence (peptide): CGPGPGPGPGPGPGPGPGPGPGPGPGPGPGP

Protein sequences, listed by entry. Tags and fused reporters are not part of them. Lines headed by an entry give the natural chain unless they say otherwise; changes in a name come on top. Residues count along the entry.
UniProt P02769, residues 25-607: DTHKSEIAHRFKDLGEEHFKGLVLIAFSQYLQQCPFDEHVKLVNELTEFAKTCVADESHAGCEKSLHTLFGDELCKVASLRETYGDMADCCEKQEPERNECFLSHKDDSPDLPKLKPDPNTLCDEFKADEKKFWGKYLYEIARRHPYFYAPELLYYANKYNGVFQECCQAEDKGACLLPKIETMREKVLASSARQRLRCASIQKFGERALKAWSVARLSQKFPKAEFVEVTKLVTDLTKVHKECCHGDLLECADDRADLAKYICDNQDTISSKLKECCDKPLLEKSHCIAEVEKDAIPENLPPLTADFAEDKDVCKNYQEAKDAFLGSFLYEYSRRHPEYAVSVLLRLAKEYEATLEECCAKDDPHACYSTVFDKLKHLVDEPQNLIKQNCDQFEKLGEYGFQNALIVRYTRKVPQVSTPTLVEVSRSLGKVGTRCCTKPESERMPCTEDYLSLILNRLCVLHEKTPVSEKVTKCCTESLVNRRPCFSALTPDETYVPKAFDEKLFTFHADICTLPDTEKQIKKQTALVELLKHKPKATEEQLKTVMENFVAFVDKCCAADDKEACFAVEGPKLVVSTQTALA
UniProt P10636: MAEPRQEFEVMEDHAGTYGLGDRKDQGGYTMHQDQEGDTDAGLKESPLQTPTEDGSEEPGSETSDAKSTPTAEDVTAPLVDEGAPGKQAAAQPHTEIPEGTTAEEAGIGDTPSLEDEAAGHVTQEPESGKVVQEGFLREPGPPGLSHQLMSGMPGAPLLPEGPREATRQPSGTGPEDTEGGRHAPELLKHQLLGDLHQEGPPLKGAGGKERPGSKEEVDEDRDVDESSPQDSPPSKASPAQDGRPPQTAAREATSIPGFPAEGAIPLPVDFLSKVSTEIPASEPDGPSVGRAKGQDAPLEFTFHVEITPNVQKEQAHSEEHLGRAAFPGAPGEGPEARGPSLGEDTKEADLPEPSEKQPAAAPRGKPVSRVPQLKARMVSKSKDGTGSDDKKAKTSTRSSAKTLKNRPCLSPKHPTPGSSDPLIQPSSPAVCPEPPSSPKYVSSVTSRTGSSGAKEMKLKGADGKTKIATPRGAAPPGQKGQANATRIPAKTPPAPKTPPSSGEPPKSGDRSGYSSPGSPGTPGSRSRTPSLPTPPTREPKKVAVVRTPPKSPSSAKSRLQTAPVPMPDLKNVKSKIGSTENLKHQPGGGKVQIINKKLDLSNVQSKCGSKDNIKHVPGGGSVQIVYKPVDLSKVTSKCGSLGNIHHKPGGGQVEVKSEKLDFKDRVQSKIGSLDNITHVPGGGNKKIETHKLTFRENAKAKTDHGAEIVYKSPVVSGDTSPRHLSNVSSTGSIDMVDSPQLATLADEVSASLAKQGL
UniProt P05067, residues 18-770: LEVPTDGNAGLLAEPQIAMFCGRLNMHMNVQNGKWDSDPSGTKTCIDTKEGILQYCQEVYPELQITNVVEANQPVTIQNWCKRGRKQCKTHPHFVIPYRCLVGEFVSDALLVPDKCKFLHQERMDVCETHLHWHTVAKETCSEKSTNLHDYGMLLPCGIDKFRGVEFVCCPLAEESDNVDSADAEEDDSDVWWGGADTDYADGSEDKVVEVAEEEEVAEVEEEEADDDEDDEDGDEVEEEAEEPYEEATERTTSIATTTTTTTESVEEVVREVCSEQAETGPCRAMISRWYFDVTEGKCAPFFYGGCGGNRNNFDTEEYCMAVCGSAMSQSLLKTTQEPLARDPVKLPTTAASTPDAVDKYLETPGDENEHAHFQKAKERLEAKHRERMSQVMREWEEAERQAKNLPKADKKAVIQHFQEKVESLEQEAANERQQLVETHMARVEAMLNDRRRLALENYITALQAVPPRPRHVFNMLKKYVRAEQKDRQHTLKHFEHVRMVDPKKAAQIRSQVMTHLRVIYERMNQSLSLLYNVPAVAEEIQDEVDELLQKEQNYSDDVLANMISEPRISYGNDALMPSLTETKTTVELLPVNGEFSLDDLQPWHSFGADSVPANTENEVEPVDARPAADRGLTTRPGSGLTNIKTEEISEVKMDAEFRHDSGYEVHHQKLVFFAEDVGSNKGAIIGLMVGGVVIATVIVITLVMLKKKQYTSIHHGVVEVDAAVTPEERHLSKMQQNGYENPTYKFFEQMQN
UniProt Q13148: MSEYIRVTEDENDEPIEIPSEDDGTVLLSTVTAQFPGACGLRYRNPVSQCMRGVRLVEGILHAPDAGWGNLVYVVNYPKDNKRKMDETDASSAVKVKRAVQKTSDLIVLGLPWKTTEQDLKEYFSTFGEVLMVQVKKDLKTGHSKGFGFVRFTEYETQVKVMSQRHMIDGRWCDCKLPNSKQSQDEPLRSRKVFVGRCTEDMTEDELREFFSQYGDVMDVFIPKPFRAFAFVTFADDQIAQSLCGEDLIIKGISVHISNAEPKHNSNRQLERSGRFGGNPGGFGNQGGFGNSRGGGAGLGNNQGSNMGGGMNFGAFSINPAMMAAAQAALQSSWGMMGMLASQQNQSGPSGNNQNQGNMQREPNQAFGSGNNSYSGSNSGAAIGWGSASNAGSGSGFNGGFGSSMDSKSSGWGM

[4] = target: T2, GP10: H-(GP)10HHHHHH-NH2; assay: indirect ELISA, coated His-tagged peptide
T2 sequence (peptide, C-terminal amide): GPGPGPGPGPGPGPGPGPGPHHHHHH

[5] = target: T3, GP20: H-(GP)20HHHHHH-NH2; assay: indirect ELISA, coated His-tagged peptide
T3 sequence (peptide, C-terminal amide): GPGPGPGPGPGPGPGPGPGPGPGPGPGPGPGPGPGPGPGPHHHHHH

[6] = target: BSA-coupled (GP)15 DPR protein peptide (bovine) (UniProt P02769); assay: indirect ELISA, coated BSA-coupled peptide
[7] = target: Tau (UniProt P10636); assay: indirect ELISA, antibody at 20 nM, fold increase above median
[8] = target: full-length amyloid precursor protein (UniProt P05067); assay: as above
[9] = target: transactive response DNA binding protein 43 (UniProt Q13148); assay: as above
[10] = target: BSA-coupled (GA)15 DPR protein peptide (bovine) (UniProt P02769); assay: Western blot, BSA-coupled peptide
[11] = target: BSA-coupled (PR)15 DPR protein peptide (bovine) (UniProt P02769); assay: Western blot, BSA-coupled peptide
[12] = target: T4, (PR)15: H-C(PR)15-OH; assay: indirect ELISA, coated uncoupled peptide
T4 sequence (peptide): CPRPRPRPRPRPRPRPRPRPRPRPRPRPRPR

[13] = target: BSA-coupled (PR)15 DPR protein peptide (bovine) (UniProt P02769); assay: indirect ELISA, coated BSA-coupled peptide
[14] = target: BSA-coupled (PA)15 DPR protein peptide (bovine) (UniProt P02769); assay: Western blot, BSA-coupled peptide
[15] = target: T5, (PA)15: H-C(PA)15-OH; assay: indirect ELISA, coated uncoupled peptide
T5 sequence (peptide): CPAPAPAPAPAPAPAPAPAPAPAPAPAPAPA

[16] = target: T6, PA10: H-(PA)10HHHHHH-NH2; assay: indirect ELISA, coated His-tagged peptide
T6 sequence (peptide, C-terminal amide): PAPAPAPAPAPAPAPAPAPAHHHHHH

[17] = target: T7, PA20: H-(PA)20HHHHHH-NH2; assay: indirect ELISA, coated His-tagged peptide
T7 sequence (peptide, C-terminal amide): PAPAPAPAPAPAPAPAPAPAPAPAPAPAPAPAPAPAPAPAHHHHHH

[18] = target: T8, PA5: H-(PA)5HHHHHH-NH2; assay: indirect ELISA, coated His-tagged peptide
T8 sequence (peptide, C-terminal amide): PAPAPAPAPAHHHHHH

[19] = target: BSA-coupled (PA)15 DPR protein peptide (bovine) (UniProt P02769); assay: indirect ELISA, coated BSA-coupled peptide
[20] = target: BSA (bovine) (UniProt P02769); assay: indirect ELISA, BSA coated as control, antibody titrated

binding [1]: binds
binding [2]: binds
binding [3]: binds
binding [4]: binds
binding [5]: binds
binding [6]: binds
binding [7]: no binding (tested: 20 nM)
binding [8]: binds
binding [9]: binds
B1: NI-308.46E9 (antibody, V domains shown)
VH: QVQLQESGPGLVKPSETLSLTCTVSGASISGSTYYWGWIRQPPGKGLEYIGRIYYSGSTYYNPSLKSRATISVDTSKNQLSLTLSSVTAADTAVYYCVRPFYAGSGNSPFDYWGQGTLVTVSS
VL: CEIVLTQSPATVSVSPGERATLSCRASQSVSTNLAWYQQKPGQPPRLLIYGASTRATGIPARFSGSGSGAEFTLTISSLQSEDFVVYYCQQYNNWPPAFGGGTKVEIK

binding [10]: binds
binding [11]: binds
binding [2]: binds
binding [12]: binds
binding [13]: binds
B2: NI-308.16C10 (antibody, V domains shown)
VH: EVQLVETGGGVVQPGMSLSLSCAATGFTFSSYGMHWVRQGPGKGPEWVAGIWYDGTNKYYGDSVTGRVTISRDNSKNTLFLQMINVRVEDTAVYYCVKDAERVQKWASYIMDVWGQGTTVTVSS
VL: EIVLTQSPGILSLSRGNRVALSCRASRSVNSSYLNWYQQKPGQAPRLLIYGASKRATGISDRFRGTGSGTDFTLTVARLEPEDIAVYYCQHYGAFGQGTKLEIK

binding [14]: binds
binding [15]: binds
binding [16]: binds
binding [17]: binds
binding [18]: binds
binding [19]: binds
B3: NI-308.4M1 (antibody, V domains shown)
VH: EVQLVETGGGVVQPGGSLRLSCEASGFTIGTYAMHWVRQFPGKGLDWVAVISFDGTTEYYTDAVKGRFTISRDNAKNTLYLQMNYLRGDDTAIYFCARDFTSSGETGSWTQVPDLWGQGTLVTVSS
VL: CEIVMTQSPATLSLSPGERATLSCRASQSVTKYLAWYQQKPGQAPRLLIYDVSYRAAGTPARFSGSGSGTDFTLTISSLEPEDFAVYYCHQRSSWPPVTFGGGTKVEIK
binding [20]: no binding (tested: about 4x10^5 pM (last point))

binding [1]: binds
binding [2]: binds
binding [3]: binds
binding [6]: binds
B4: NI-308.12A3 (antibody, V domains shown)
VH: EVQLVETGGGLVQPGGSLRLSCVGSGFLFSDFEMDWVRQAPGKGLEWISYISGDGNIIYQTDSVKGRFTISRDNAKNSLFLQMDSLTVEDTAVYYCARDARENCGGDCYSTSFDFWGQGTLVTVSS
VL: DIQMTQSPDSLAVSLGERATINCKSSQSLLYTANNRNYLAWYQKKAGQPPKLLIHWASTRASGVPDRFSGSGSGTDFILTISSLQAEDVAVYFCQHYYNSPRTFGQGTKVEIK
